From paper PMC12375108

Key:
[1] = target: GST-tagged T. marianensis hinT H100N (Thermaerobacter marianensis); assay: pull-down; 5 μg GST or GST-hinT on glutathione agarose, 2 μg AMPylated substrate, 1 h at 4 °C, TBSTX-100 with 1 mM DTT; α-AMP immunoblot; both purified
non-AMPylated Rab1 = assay: far-Western, overlay or dot blot; dot blot: 400 ng to 25 ng of AMPylated or non-AMPylated protein spotted on nitrocellulose, probed with GST or GST-hinT at 0.125 μg/mL in TBST for 1 h, detected with α-GST; both purified
[2] = target: GST-tagged T. marianensis hinT H100N (Thermaerobacter marianensis); assay: pull-down; purine nucleotide competition: 5 μg hinT on glutathione agarose, 5 μg sucA-AMP (470 nM) with no nucleotide or AMP or GMP at 1:1, 1:5 or 1:25 molar ratio; 1 h at 4 °C; α-AMP immunoblot; both purified
[3] = target: GST-tagged T. marianensis hinT H100N (Thermaerobacter marianensis); assay: pull-down; 25 μg GST-Tm hinT on glutathione agarose, 25 μg Ni-NTA purified sucA or sucA-AMP, overnight at 4 °C, TBSTX-100; eluted with 100 mM AMP; Coomassie, α-AMP and α-His immunoblot; both purified
[4] = target: GST-tagged T. marianensis hinT H100N (Thermaerobacter marianensis); assay: BLI; GST-hinT (90 nM) immobilised on anti-GST biosensors; sucA-AMP 500 to 7.81 nM, unmodified sucA at 500 nM; 10 mM Tris pH 8, 150 mM NaCl, 0.1% Triton X-100; KD from steady-state responses, one site; both purified

binding [1]: binds
B1: AMPylated sodA (enzyme, UniProt P00448 1-206)
chain: MSYTLPSLPYAYDALEPHFDKQTMEIHHTKHHQTYVNNANAALESLPEFANLPVEELITKLDQLPADKKTVLRNNAGGHANHSLFWKGLKKGTTLQGDLKAAIERDFGSVDNFKAEFEKAAASRFGSGWAWLVLKGDKLAVVSTANQDSPLMGEAISGASGFPIMGLDVWEHAYYLKFQNRRPDYIKEFWNVVNWDEAAARFAAKK
modifications: AMPylated on tyrosine, residue not given

B2: GST-tagged H. sapiens hinT H112N (enzyme, UniProt P49773 1-126)
chain: MADEIAKAQVARPGGDTIFGKIIRKEIPAKIIFEDDRCLAFHDISPQAPTHFLVIPKKHISQISVAEDDDESLLGHLMIVGKKCAADLGLNKGYRMVVNEGSDGGQSVYHVNLHVLGGRQMHWPPG
binding (non-AMPylated Rab1): no binding (tested: 0.125 μg/mL; up to 400 ng spotted)

binding [2]: binds
binding [3]: binds
B3: AMPylated sucA (enzyme, UniProt P0AFG3 1-933)
chain: MQNSALKAWLDSSYLSGANQSWIEQLYEDFLTDPDSVDANWRSTFQQLPGTGVKPDQFHSQTREYFRRLAKDASRYSSTISDPDTNVKQVKVLQLINAYRFRGHQHANLDPLGLWQQDKVADLDPSFHDLTEADFQETFNVGSFASGKETMKLGELLEALKQTYCGPIGAEYMHITSTEEKRWIQQRIESGRATFNSEEKKRFLSELTAAEGLERYLGAKFPGAKRFSLEGGDALIPMLKEMIRHAGNSGTREVVLGMAHRGRLNVLVNVLGKKPQDLFDEFAGKHKEHLGTGDVKYHMGFSSDFQTDGGLVHLALAFNPSHLEIVSPVVIGSVRARLDRLDEPSSNKVLPITIHGDAAVTGQGVVQETLNMSKARGYEVGGTVRIVINNQVGFTTSNPLDARSTPYCTDIGKMVQAPIFHVNADDPEAVAFVTRLALDFRNTFKRDVFIDLVCYRRHGHNEADEPSATQPLMYQKIKKHPTPRKIYADKLEQEKVATLEDATEMVNLYRDALDAGDCVVAEWRPMNMHSFTWSPYLNHEWDEEYPNKVEMKRLQELAKRISTVPEAVEMQSRVAKIYGDRQAMAAGEKLFDWGGAENLAYATLVDEGIPVRLSGEDSGRGTFFHRHAVIHNQSNGSTYTPLQHIHNGQGAFRVWDSVLSEEAVLAFEYGYATAEPRTLTIWEAQFGDFANGAQVVIDQFISSGEQKWGRMCGLVMLLPHGYEGQGPEHSSARLERYLQLCAEQNMQVCVPSTPAQVYHMLRRQALRGMRRPLVVMSPKSLLRHPLAVSSLEELANGTFLPAIGEIDELDPKGVKRVVMCSGKVYYDLLEQRRKNNQHDVAIVRIEQLYPFPHKAMQEVLQQFAHVKDFVWCQEEPLNQGAWYCSQHHFREVIPFGASLRYAGRPASASPAVGYMSVHQKQQQDLVNDALNVE
modifications: multiple AMPylation sites, residues not given

binding [4]: no binding (tested: 500 nM)
binding [3]: no binding
B4: unmodified sucA (enzyme, UniProt P0AFG3 1-933)
chain: B3 chain

No constants are given. Whether binding was seen depends on the method and setting. For part of these data: Binding can be weak; no strength is given. For part of these data: Sequences can lack the tags named with a protein. One block for each binder: values may come before it.
